Results published in the supplement of paper PMC8551327.
Structures can show the parent of a compound that is named as a salt. This is one part of the list. Rule as the data show it: active = 1.25 or more and inactive = the rest. Single values are uncertain, as repeats are few or missing.

Tested on: Kcc2-LUC knock-in mouse primary cortical neurons (Kcc2 promoter reporter)
Experiment: Kcc2 promoter-driven luciferase activity relative to vehicle control (fold of vehicle (ratio)); higher = stronger Kcc2 promoter activation (Kcc2 expression enhancer)
Conditions: 100 nM; 48 h

Q: C1CN(c2nnc(N3CCC3)nn2)C1 [3,6-Bis(azetidin-1-yl)-1,2,4,5-tetrazine] was tested. Which “Kcc2 promoter-driven luciferase activity” value did it give?
A: active: 1.39

Q: Which “Kcc2 promoter-driven luciferase activity” value does the source give for CC[C@@]1(O)C(=O)OCc2c1cc1n(c2=O)Cc2cc3c(N)cccc3nc2-1 [9-Amino-20-camptothecin] here?
A: inactive: 0.84

Q: COc1cc(/C=C(\C)c2ccc3c(c2)OCO3)cc(OC)c1OC was tested. Which “Kcc2 promoter-driven luciferase activity” value did it give?
A: inactive: 0.78

Q: With COc1ccc(S(=O)(=O)NN=CC(=O)O)cc1 [Acetic acid, [[(4-methoxyphenyl)sulfonyl]hydrazono]-] as the molecule, how does the “Kcc2 promoter-driven luciferase activity” value read?
A: inactive: 0.61

Q: For Cc1c2ccnc(C(N)=O)c2c(C)c2c1[nH]c1ccccc12, which “Kcc2 promoter-driven luciferase activity” value is on record?
A: inactive: 0.98

Q: How did the “Kcc2 promoter-driven luciferase activity” value turn out when CN(C)c1ccc(/C=C/C(=O)c2ccccc2)cc1Br [3-(3-Bromo-4-(dimethylamino)phenyl)-1-phenyl-2-propen-1-one] was run?
A: inactive: 1.06

Q: Which “Kcc2 promoter-driven luciferase activity” value does the source give for NC(=Nc1nc(-c2ccccn2)cc2ccccc12)c1ccccn1 here?
A: active: 1.43

Q: For CCOC(=O)NC(Nc1ccc(F)cc1)(C(=O)OCC)C(F)(F)F (stereo not drawn), which “Kcc2 promoter-driven luciferase activity” value is on record?
A: inactive: 1.02

Q: For CN(C)CCCN1c2ccccc2Sc2ccc3ccccc3c21 [3-Benzo[a]phenothiazin-12-yl-N,N-dimethylpropan-1-amine], which “Kcc2 promoter-driven luciferase activity” value is on record?
A: inactive: 1.13

Q: How did the “Kcc2 promoter-driven luciferase activity” value turn out when CC[C@H](CC[C@@H](C)[C@H]1CC[C@H]2[C@@H]3CC=C4C[C@@H](O)CC[C@]4(C)[C@H]3CC[C@]12C)C(C)C [Beta-Sitosterol] was run?
A: active: 1.43

Q: How did the “Kcc2 promoter-driven luciferase activity” value turn out when CCCCCC(/C=C/[C@@H]1CC(=O)C[C@H]1O[Si](C)(C)C(C)(C)C)OCOCCOC (stereo partly drawn) [Cyclopentanone,1-dimethylethyl)silyl]oxy]-] was run?
A: inactive: 0.644

Q: Which “Kcc2 promoter-driven luciferase activity” value does the source give for CC(=O)Nc1ccc(-c2nc3ccccc3s2)cc1 [N-[4-(1,3-benzothiazol-2-yl)phenyl]acetamide] here?
A: active: 1.28

Q: Which “Kcc2 promoter-driven luciferase activity” value does the source give for COc1ccc(NC(=O)CC(=O)N2N=C(C)C(/N=N/c3ccc(S(=O)(=O)c4ccc(/N=N/C5C(=O)N(C(=O)CC(=O)Nc6ccc(OC)cc6)N=C5C)cc4)cc3)C2=O)cc1 (stereo not drawn) here?
A: inactive: 1.17

Q: For COC(=O)C1CCC(=O)N1C(c1ccc(OC)cc1)c1cc(OC)c(OC)c(OC)c1 (stereo not drawn), which “Kcc2 promoter-driven luciferase activity” value is on record?
A: inactive: 0.662

Q: How did the “Kcc2 promoter-driven luciferase activity” value turn out when CN(C)CCOC1(Cc2ccc(Cl)cc2Cl)CCC(C(C)(C)C)CC1 (stereo not drawn) was run?
A: inactive: 0.865

Q: For CCCCCCCCCCCCC(O)C(=O)O (stereo not drawn) [2-Hydroxytetradecanoic acid], which “Kcc2 promoter-driven luciferase activity” value is on record?
A: inactive: 1.04

Q: Which “Kcc2 promoter-driven luciferase activity” value does the source give for O/N=C(\CC(O)(C(F)(F)F)C(F)(F)F)c1cccc(Cl)c1 here?
A: inactive: 0.8

Q: How did the “Kcc2 promoter-driven luciferase activity” value turn out when Nc1ncnc2c1nnn2[C@@H]1O[C@H](CO)[C@@H](O)[C@H]1O [8-Azadenosine] was run?
A: inactive: 0.72

Q: Which “Kcc2 promoter-driven luciferase activity” value does the source give for COC(=O)NC1C(C)OC(OC2C/C=C(/C)C3C=CC4C(OC5CC(OC6CCC(OC7CC(O)C(OC8CCC(O)C(C)O8)C(C)O7)C(C)O6)C(OC(C)=O)C(C)O5)C(C)CC(C)C4C3(C)/C(O)=C3/C(=O)OC4(CC(C=O)=CC(O)C4/C=C\2C)C3=O)CC1(C)[N+](=O)[O-] (stereo not drawn) [Tetrocarcin A, sodium salt] here?
A: inactive: 0.86

Q: With COC(=O)c1ccccc1NC(=O)C(=O)CC(=O)c1ccccc1NC1=CC(=O)C(=O)c2ccccc21 as the molecule, how does the “Kcc2 promoter-driven luciferase activity” value read?
A: inactive: 0.69

Q: Nc1ccn([C@@H]2C=C(CO)[C@@H](O)[C@H]2O)c(=O)n1 [Cyclopentenyl Cytosine] was tested. Which “Kcc2 promoter-driven luciferase activity” value did it give?
A: inactive: 1.12

Q: CCCCCCCCCCCCCCCCCCOCC(COP(=O)([O-])OCC[N+](C)(C)C)OC (stereo not drawn) [Edelfosine] was tested. Which “Kcc2 promoter-driven luciferase activity” value did it give?
A: inactive: 1.07

Q: How did the “Kcc2 promoter-driven luciferase activity” value turn out when C=C(C#N)C(=O)OCC(CC)CC.C=C(C#N)C(=O)OCC(CC)CC.CS(C)=O.CS(C)=O.Nc1c(N=Nc2ccc(-c3ccc(N=Nc4cc(S(=O)(=O)[O-])c5ccccc5c4N)cc3)cc2)cc(S(=O)(=O)[O-])c2ccccc12.[Pt+2] was run?
A: inactive: 1.16

Q: For CCN(CC)CCCC(C)NC(=O)c1ccc2c(c1)C(=O)c1ccccc1C2=O (stereo not drawn), which “Kcc2 promoter-driven luciferase activity” value is on record?
A: inactive: 0.77

Q: Which “Kcc2 promoter-driven luciferase activity” value does the source give for COC(=O)C1C(O)C(C)C(O)OC1C(C)C(O)C(C)/C=C\C=C(/C)C(=O)Nc1c(C)c(OC(C)=O)c2c(c1O)C(=O)C(C)=C1OCOC(/C(C)=C/C(C)=O)=C12 (stereo not drawn) [Streptoval C] here?
A: inactive: 0.72

Q: With CC1(Cl)CC2OC3(Br)C=CC(C)(O)C2(CC1Br)C3(C)C (stereo not drawn) [Pacifenol] as the molecule, how does the “Kcc2 promoter-driven luciferase activity” value read?
A: inactive: 1.12

Q: Which “Kcc2 promoter-driven luciferase activity” value does the source give for CCN(CC)c1ccc2cc3ccc(=[N+](CC)CC)cc-3oc2c1 [Pyronine B] here?
A: inactive: 0.8

Q: How did the “Kcc2 promoter-driven luciferase activity” value turn out when CNC(=O)c1cc(NC(=O)N(CCC#N)CCN(C(=O)N[C@@H](Cc2ccccc2)C(=O)N[C@@H](CC(C)C)C(=O)NC)c2ccccc2)ccc1OC was run?
A: inactive: 0.96
